# Experimental data from patent US8772200B2, “Nitrogen-containing heterocyclic compound and agricultural fungicide” (Nippon Soda Co., Ltd., priority 2010, dated 2014).
# Some of these results come from one statement about several compounds together. At least one structure is not confirmed: it was looked up by name or label, or the drawing left a doubt.
# Tested on: apple scab bacteria (Venturia inaqualis)
# Experiment: Control test of apple scab
# Assay type: in vivo
# Settings: emulsion, active ingredient 100 ppm, sprayed on apple seedlings before inoculation; held 2 weeks at 20° C.
row,SMILES,protective value
1,CC(C)(C)OC(=O)c1c(Cl)cccc1Oc1cnc2c(F)cccc2c1 [compound 410],at least 75%
2,CC(O)(c1ccccc1)c1c(F)cccc1Oc1cnc2c(F)cccc2c1 (racemic) [compound 74],at least 75%
3,O=Cc1c(Cl)cccc1Oc1cnc2ccccc2c1 [compound 419],at least 75%
4,CCC(C)c1ccccc1Oc1cnc2ccccc2c1 (centres unmarked) [compound 277],at least 75%
5,CCOC(=O)C(C)(C)OC(=O)c1c(Cl)cccc1Oc1cnc2c(F)cccc2c1 [compound 411],at least 75%
6,N#Cc1c(Br)cccc1Oc1cnc2ccccc2c1 [compound 64],at least 75%
7,CC(=O)c1c(F)cccc1Oc1cc2ccc(Cl)cc2nc1C [compound 389],at least 75%
8,Cc1nc2ccc(F)cc2cc1Oc1cccc(F)c1C(C)(C)O [compound 105],at least 75%
9,CC(=O)c1c(F)cccc1Oc1cc2cccc(F)c2nc1C [compound 358],at least 75%
10,CC(=O)c1c(F)cccc1Oc1cnc2occc2c1 [b-23],at least 75%
11,CC(C)(O)c1c(Cl)cccc1Oc1cnc2ccccc2c1 [compound 103],at least 75%
12,CC(O)c1c(F)cccc1Oc1cnc2cccc(F)c2c1 (centres unmarked) [compound 195],at least 75%
13,O=Cc1sccc1Oc1cnc2c(F)cccc2c1 [c-2],at least 75%
14,CC(=O)c1c(F)cccc1Oc1c(C)nc2c(F)cccc2c1F [compound 400],at least 75%
15,COC(C)c1c(C(F)(F)F)nn(C)c1Oc1cnc2c(F)cccc2c1 (stereo not drawn) [d-5],at least 75%
16,CC(=O)c1c(F)cccc1Oc1cnc2cc(F)ccc2c1 [compound 394],at least 75%
17,CC(O)c1c(F)cccc1Oc1cnc2c(F)ccc(F)c2c1 (centres unmarked) [compound 194],at least 75%
18,OC(c1c(F)cccc1Oc1cnc2ccccc2c1)C(F)(F)F (centres unmarked) [compound 193],at least 75%

row,SMILES,protective value
1,N#Cc1c(F)cccc1Oc1cnc2ccccc2c1 [compound 63],at least 75%
2,O=Cc1c(Cl)cccc1Oc1cnc2c(F)cccc2c1 [compound 413],at least 75%
3,CC(=NOC(C)(C)C)c1ccccc1Oc1cnc2ccccc2c1 [compound 25],at least 75%
4,CC(C)(O)c1c(F)cccc1Oc1cnc2occc2c1 [b-24],at least 75%
5,C#CC(=O)c1c(Cl)cccc1Oc1cnc2c(F)cccc2c1 [compound 370],at least 75%
6,CON=C(C)C(O)c1c(Cl)cccc1Oc1cnc2c(F)cccc2c1 (centres unmarked) [compound 204],at least 75%
7,OC1CCc2cccc(Oc3cnc4ccccc4c3)c21 (centres unmarked) [compound 137],at least 75%
8,C=Cc1nc2c(F)cccc2cc1Oc1cccc(F)c1C(C)(O)C=C (racemic) [compound 78],at least 75%
9,CC(O)(c1c(F)cccc1Oc1cc2cccc(F)c2nc1C1CC1)C1CC1 (centres unmarked) [compound 87],at least 75%
10,COC(C)c1c(Oc2cnc3c(F)cccc3c2)cccc1-c1ccccc1 (racemic) [compound 215],at least 75%
11,N#Cc1ccccc1Oc1cnc2ccccc2c1 [compound 62],at least 75%
12,COc1ccc(CC(C)(O)c2c(F)cccc2Oc2cc3cccc(F)c3nc2C)cc1 (centres unmarked) [compound 91],at least 75%
13,C[Si](C)(C)OC(C#N)c1c(Cl)cccc1Oc1cnc2c(F)cccc2c1 (centres unmarked) [compound 165],at least 75%
14,CCOC(=O)C1(c2c(F)cccc2Oc2cnc3c(F)cccc3c2)CC1 [compound 430],at least 75%
15,CCOC(=O)c1ccccc1Cc1cnc2c(F)cccc2c1 [compound 329],at least 75%
16,CC(O)c1c(F)cccc1Oc1cnc2c(c1)CCCC2 (centres unmarked) [b-9],at least 75%
17,Cc1nc2cccc(F)c2cc1Oc1cccc(F)c1C(C)(C)O [compound 121],at least 75%
